Measurements reported in publication PMC11928053.
Results are given in words; binding and its absence hold for the method and conditions named. Binding seen in cells or lysates may run through a third protein. Some entries that bind do so weakly or less than the wild type.

Chains of the proteins cited; added tags and fusions are not shown.
UniProt Q9R190: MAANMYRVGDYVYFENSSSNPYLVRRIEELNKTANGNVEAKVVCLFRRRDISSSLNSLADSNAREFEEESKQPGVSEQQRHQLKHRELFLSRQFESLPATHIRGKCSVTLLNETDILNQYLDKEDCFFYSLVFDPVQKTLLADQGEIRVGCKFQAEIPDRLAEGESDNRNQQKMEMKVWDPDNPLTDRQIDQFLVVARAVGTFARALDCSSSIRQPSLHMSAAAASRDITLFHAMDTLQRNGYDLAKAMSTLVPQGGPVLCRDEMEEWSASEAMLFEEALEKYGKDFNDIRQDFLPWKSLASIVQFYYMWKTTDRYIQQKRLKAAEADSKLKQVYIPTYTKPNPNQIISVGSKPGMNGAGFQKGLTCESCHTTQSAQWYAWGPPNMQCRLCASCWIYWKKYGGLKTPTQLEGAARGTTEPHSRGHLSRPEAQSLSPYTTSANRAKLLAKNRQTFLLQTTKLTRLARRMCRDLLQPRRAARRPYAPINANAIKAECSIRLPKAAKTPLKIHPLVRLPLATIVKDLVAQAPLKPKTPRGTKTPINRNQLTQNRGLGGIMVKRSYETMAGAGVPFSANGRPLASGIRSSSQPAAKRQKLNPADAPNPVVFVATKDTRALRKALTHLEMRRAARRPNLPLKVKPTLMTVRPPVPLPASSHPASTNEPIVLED
UniProt Q9GZV5: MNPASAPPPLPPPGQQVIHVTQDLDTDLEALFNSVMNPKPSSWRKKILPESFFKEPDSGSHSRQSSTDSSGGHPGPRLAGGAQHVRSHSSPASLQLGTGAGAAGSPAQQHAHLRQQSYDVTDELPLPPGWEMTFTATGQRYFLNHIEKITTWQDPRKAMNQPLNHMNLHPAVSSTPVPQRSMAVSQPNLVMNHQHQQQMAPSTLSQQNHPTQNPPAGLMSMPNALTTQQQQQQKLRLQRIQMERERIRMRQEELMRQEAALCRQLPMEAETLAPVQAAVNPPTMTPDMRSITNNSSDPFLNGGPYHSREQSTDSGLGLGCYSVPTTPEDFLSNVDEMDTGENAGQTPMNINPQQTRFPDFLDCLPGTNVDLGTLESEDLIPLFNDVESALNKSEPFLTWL
UniProt Q08122: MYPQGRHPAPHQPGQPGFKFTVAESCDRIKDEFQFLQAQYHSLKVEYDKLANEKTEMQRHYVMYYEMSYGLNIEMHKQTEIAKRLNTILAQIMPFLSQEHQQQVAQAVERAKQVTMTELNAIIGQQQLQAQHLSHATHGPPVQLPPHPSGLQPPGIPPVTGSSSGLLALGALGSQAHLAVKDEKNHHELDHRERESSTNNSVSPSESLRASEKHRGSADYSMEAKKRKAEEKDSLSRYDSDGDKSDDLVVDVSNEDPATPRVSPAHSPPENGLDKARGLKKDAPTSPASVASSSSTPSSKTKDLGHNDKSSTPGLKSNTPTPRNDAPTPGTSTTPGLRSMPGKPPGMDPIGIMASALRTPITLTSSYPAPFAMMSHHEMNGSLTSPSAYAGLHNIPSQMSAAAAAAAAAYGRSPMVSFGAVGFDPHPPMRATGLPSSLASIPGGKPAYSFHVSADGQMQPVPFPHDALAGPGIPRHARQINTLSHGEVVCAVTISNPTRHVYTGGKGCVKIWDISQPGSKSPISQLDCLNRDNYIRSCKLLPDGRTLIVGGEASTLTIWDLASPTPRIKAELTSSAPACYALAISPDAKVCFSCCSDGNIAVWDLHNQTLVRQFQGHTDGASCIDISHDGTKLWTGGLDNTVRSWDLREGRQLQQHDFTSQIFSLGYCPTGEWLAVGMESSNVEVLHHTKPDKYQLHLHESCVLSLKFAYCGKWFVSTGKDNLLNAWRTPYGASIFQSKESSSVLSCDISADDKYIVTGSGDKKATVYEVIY

Legend:
FLAG–MTA2 = FLAG–MTA2 (UniProt Q9R190); test: co-IP; HEK293T cells co-transfected; 500 μg of extract on anti-FLAG M2 magnetic beads overnight at 4°C, washed three times with PBS, eluted with 3× FLAG peptide, western blot
FLAG–TAZ = FLAG–TAZ (UniProt Q9GZV5); test: as above

Substance	binding (FLAG–MTA2)	binding (FLAG–TAZ)
HA–TAZ (from UniProt Q9GZV5 1-400)	binds	–
TLE3 (open reading frame in pcDNA3) (from UniProt Q08122 1-772)	–	binds
